Measurements: patent publication US20250262333A1, “Construct for Transferring Foreign Substance, and Use Thereof” (TOAGOSEI CO., LTD., priority 2022, published 2025)
Some of these results come from one statement about several compounds together.

system: HeLa cells; experiment: Evaluation of cell membrane penetration by flow cytometry; assay type: cell-based, human; details: 10 μM, 20 hours, compared with Example 2 (construct including the peptide 2)
Protocol: As the eukaryotic cells, HeLa cells (established cell strain derived from a human cervical cancer cell) were used and the cell membrane penetration of the peptides 1 to 6 was analyzed. In Examples 1 to 6, the prepared samples 1 to 6 were used, respectively, and in Example 7, the FAM solution was used.
The HeLa cell was cultured in 10% fetal bovine serum (FBS)-containing Dulbecco's modified Eagle's medium (DMEM (Cat No. 043-30085, manufactured by FUJIFILM Wako Pure Chemical Corporation)), which is a normal culture medium.
The HeLa cell that adhered to a culture plate was cleaned with PBS and then, a 0.25%-trypsin/EDTA solution was added thereto, and incubation was performed for three minutes at 37° C. After the incubation, the aforementioned 10% FBS-containing DMEM was added to deactivate trypsin and then, five-minute centrifugal separation was performed at 150×g to precipitate the cells. After the supernatant generated by the centrifugal separation was removed, the 10% FBS-containing DMEM was added to the precipitate (cell pellet) to prepare a cell suspension of about 2×10^5 cells/mL. The cell suspension was added by 1 mL to a well of a commercially available six-hole (well) plate (manufactured by AGC TECHNO GLASS Co., Ltd.) so as to seed the cell (about 2×10^5 cells/well). In addition, the 2 mM sample solution 1 was diluted with the 10% FBS-containing DMEM to prepare the sample solution 1 in which the concentration of the sample 1 was 20 μM. […]
Regarding the obtained cells (cell pellet), the cell membrane penetration of the sample 1 was analyzed using a flow cytometer. […]
Using the aforementioned flow cytometer, gating based on forward scatter (FSC) and side scatter (SSC) was performed to set a gate about a cell group to be analyzed, and the fluorescence intensity was measured about the cell group in this gate. […] The fluorescence intensity was measured using a fluorescence detector FL2 of the flow cytometer (optimum detection wavelength around 543 nm) capable of detecting the fluorescence wavelength of FAM. […]

Substance	cell membrane penetration / value of MFI, comparison in words
Ac-KSKKYTSWYVALKR-FAM (N-acetyl; C-terminal FAM) [Example 3]	not largely different
Ac-KSRKYTSWYVALKR-FAM (N-acetyl; C-terminal FAM) [Example 4]	not largely different
Ac-RSKKYTSWYVALKR-FAM (N-acetyl; C-terminal FAM) [Example 5]	not largely different
